Data as given in PubChem BioAssay AID1259424 (University of Nebraska Medical Center, 2018).
The whole screen tested about 14,000 reagents; this is a part drawn at random. 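Higher correlation or smaller distance means closer resemblance to KSR1 loss; control wells, including KSR1 knockdowns, recur on many plates.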 Further read-outs or replicates are left out here. Not stated in the record: the time to read-out.

Test: 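Seek colon cancer survival genes behaving like KSR1, using a six-gene signature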 (primary screen)
System: human HCT116 colon cancer cells
Reagents: siRNA pool against human genes, 50 nM
Detection: 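Log2 levels of six mRNAs (branched-DNA multiplex), adjusted by two reference genes and the non-targeting median, then scored against the average KSR1 knockdown pattern as Pearson r and euclidean distance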
Direction: mean correlation with KSR1 profile: higher = expression change more like KSR1 knockdown

Target gene | mean correlation with KSR1 profile
DYNLL2 | -0.635
EXD3 | 0.436
ANO2 | 0.1
FOSB | 0.55
DGKQ | -0.589
CRLF3 | -0.221
XRCC4 | -0.277
TRPV5 | -0.0923
EEF1E1 | 0.392
SLAIN2 | -0.113
ZNF701 | -0.281
FSHB | -0.681
ZBTB37 | 0.813
IRAK2 | -0.532
H4C12 | 0.13
MAP3K9 | 0.197
RAD23B | 0.181
GPR15 | -0.746
UQCRC1 | -0.352
EMSY | -0.644

Laid out differently: 2 of the entries above
Target gene	mean correlation with KSR1 profile
ZBTB37	0.813
IRAK2	-0.532
